Test results published in article PMC12000498.

Sequences of proteins named here, by UniProt entry; tags and fusion partners are left off.
UniProt Q9Z2G0: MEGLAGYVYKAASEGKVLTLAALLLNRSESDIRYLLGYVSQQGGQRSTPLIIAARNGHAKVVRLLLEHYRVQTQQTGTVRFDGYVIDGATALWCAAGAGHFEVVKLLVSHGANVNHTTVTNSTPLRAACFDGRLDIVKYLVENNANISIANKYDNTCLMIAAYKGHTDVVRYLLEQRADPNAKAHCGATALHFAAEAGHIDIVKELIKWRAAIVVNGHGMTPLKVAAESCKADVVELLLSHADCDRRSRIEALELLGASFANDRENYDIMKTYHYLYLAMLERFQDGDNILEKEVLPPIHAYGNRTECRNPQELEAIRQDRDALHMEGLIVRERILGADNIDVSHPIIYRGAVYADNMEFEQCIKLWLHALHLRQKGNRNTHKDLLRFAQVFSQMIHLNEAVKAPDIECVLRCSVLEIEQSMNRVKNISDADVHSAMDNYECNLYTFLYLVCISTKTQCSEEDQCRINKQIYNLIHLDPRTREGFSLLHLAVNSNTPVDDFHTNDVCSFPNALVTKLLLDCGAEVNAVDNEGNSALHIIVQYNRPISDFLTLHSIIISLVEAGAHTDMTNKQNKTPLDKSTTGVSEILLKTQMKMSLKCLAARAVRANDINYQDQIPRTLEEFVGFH
UniProt P08151: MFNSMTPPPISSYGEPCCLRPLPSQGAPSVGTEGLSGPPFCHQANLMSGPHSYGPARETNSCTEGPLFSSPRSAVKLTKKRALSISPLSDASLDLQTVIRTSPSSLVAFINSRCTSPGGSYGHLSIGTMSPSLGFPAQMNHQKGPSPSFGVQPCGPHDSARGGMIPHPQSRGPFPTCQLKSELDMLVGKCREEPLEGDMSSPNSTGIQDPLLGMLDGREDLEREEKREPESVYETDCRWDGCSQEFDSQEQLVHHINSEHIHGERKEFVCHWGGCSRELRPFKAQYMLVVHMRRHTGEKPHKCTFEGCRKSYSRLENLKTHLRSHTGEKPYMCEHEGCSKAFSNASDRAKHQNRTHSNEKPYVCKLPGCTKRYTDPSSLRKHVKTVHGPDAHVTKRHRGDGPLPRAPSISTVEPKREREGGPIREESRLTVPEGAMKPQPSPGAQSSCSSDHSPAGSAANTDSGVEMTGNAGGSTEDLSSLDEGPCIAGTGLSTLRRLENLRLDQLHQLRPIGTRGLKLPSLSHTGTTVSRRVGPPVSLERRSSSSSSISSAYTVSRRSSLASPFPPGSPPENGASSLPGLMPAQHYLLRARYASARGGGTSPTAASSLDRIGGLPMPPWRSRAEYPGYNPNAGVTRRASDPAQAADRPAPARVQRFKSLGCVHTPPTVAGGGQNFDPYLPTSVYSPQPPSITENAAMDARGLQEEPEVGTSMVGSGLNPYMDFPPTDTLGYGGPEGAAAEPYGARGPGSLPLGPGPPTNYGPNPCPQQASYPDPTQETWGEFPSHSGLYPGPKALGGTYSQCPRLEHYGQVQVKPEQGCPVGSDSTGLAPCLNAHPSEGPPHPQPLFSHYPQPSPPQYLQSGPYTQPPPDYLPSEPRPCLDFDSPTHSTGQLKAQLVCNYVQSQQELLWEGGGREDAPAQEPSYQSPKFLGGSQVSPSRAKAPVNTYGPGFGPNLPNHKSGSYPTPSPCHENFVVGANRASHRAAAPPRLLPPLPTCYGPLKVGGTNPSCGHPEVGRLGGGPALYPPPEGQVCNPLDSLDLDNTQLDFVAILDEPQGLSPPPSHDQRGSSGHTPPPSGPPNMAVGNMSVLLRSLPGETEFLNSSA
UniProt P47806: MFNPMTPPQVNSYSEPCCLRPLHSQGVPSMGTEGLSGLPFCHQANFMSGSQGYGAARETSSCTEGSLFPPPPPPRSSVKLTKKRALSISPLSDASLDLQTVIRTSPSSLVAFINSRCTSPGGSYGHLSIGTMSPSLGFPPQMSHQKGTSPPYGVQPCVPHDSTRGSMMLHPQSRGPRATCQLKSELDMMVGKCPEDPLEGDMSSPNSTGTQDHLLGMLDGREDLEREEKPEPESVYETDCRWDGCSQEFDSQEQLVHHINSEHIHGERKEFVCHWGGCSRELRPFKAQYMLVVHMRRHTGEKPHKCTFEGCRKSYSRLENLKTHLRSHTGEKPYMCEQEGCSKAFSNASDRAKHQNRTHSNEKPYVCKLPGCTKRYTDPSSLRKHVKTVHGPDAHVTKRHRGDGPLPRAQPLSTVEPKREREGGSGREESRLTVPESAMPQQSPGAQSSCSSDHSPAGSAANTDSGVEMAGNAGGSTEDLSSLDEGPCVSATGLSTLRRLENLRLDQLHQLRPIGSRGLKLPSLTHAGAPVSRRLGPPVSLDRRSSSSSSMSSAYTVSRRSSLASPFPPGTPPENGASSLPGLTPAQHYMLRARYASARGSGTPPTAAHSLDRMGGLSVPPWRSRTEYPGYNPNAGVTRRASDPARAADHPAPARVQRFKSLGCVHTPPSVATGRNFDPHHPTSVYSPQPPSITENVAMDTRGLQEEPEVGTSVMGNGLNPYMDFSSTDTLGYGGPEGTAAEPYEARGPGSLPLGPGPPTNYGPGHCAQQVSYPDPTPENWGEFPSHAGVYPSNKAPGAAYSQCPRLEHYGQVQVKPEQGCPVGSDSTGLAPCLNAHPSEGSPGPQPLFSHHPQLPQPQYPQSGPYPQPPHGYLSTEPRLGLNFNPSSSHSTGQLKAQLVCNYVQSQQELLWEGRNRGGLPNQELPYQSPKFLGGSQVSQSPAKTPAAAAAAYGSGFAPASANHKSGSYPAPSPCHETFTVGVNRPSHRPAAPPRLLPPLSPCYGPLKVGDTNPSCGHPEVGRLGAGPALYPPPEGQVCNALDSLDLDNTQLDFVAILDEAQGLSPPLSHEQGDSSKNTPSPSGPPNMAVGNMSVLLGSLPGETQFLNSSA
UniProt P35579: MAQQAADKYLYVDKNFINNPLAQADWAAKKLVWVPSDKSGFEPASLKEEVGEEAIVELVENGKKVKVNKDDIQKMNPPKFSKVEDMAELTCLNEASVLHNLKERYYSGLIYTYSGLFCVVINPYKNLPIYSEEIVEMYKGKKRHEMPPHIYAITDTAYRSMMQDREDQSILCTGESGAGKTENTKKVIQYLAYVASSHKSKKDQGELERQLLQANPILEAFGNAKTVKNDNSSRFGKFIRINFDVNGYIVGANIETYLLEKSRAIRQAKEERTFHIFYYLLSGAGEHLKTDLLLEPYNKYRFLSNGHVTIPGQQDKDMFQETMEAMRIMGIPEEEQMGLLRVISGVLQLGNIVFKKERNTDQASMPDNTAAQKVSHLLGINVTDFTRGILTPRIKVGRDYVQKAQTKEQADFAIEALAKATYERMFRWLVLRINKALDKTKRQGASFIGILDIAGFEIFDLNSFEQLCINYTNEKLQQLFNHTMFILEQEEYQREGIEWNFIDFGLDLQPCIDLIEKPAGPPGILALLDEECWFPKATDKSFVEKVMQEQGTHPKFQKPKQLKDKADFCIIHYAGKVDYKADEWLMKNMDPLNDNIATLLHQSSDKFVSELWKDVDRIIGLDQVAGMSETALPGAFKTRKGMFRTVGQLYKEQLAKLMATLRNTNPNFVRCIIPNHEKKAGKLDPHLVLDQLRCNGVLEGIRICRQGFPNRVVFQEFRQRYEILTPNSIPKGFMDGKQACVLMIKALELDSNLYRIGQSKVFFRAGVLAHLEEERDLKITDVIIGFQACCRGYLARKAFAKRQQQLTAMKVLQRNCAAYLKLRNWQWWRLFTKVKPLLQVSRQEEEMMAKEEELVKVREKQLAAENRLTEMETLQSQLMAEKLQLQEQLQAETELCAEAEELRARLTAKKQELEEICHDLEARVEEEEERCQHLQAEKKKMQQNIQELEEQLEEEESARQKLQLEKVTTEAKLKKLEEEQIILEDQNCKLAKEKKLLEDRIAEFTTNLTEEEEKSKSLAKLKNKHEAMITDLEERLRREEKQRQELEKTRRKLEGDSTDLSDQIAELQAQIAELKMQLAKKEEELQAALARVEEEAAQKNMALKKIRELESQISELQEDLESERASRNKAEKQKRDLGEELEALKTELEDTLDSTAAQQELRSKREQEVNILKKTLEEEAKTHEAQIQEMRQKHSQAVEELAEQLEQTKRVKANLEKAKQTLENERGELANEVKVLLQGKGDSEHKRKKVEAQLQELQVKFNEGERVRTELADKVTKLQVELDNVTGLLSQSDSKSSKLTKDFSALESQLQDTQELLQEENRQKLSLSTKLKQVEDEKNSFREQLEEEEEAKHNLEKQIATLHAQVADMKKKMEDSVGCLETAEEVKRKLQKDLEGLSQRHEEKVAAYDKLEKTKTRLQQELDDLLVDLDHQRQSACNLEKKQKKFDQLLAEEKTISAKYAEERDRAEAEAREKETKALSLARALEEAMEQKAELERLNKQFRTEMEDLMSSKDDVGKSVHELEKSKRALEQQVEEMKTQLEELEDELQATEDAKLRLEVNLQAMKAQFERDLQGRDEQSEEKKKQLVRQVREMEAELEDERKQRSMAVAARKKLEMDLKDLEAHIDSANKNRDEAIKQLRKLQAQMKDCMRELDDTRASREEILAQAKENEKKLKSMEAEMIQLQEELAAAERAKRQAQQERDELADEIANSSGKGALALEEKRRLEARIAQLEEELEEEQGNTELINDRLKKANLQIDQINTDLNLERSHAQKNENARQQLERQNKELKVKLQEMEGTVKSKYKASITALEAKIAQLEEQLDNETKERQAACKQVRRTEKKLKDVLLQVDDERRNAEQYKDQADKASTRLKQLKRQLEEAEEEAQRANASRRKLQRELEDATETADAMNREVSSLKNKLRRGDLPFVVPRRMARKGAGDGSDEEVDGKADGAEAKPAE
UniProt Q8N165: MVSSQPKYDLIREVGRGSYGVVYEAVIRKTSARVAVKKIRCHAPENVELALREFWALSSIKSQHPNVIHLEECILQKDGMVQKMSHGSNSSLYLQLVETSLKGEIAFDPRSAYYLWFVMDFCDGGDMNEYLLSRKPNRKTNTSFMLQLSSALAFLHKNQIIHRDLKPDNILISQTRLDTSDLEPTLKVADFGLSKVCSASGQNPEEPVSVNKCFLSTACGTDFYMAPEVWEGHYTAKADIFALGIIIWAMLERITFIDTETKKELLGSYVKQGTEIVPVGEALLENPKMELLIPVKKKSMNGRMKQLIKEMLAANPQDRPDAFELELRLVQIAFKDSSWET

What was measured:
[1] = molecular target: Flag-tagged Fem1b (UniProt Q9Z2G0); test: affinity purification with mass spectrometry; Flag-Fem1b stably expressed in HEK293T cells; lysate in IP buffer immunoprecipitated with anti-Flag affinity gel; eluate resolved by SDS-PAGE, trypsin digest, LC-MS
[2] = molecular target: Flag-tagged Fem1b (UniProt Q9Z2G0); test: affinity purification with mass spectrometry; Flag-Fem1b stably expressed in skeletal cells; lysate in IP buffer immunoprecipitated with anti-Flag affinity gel; eluate resolved by SDS-PAGE, trypsin digest, LC-MS

Row | Substance | binding [1] | binding [2]
1 | Gli1 (293T cells) (from UniProt P08151 1-1106) | binds | 
2 | Gli1 (skeletal cells) (from UniProt P47806 1-1111) |  | binds
3 | Myh9 (293T cells) (from UniProt P35579 1-1960) | binds | 
4 | Pdik1l (293T cells) (from UniProt Q8N165 1-341) | binds | 

No constants are given. Whether binding was seen depends on the method and setting. In cells and extracts the contact can be indirect. These calls come from enrichment with a bait or labelling near it, and not all partners need be listed.
